Measurements from the supplement of paper PMC9233669.
Variants at the background level are over-represented here.

Experiments:
biotinyl-Phe-oxazolone = assay: self-aminoacylation, catalytic enhancement (BFO) (fold over background); higher = more active; k-Seq, kA / k0A0; sequences stand for … in GGGAAUGGAUCCACAUCUACGAAUUC…UUCACUGCAGACUUGACGAAGCUG
In short: (§1)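 Catalytic enhancement equals the median kA over the uncatalyzed rate, the latter read from the low-activity peak of a bimodal Gaussian fit. Values of kA came from fitting each sequence's fraction reacted to a pseudo-first-order model, with 1000 bootstraps. Reacted RNA was captured with streptavidin and quantified by triplicate qPCR and Illumina sequencing after 90 minutes at room temperature with 2–1250 μM biotinyl-aminoacyl-oxazolone and 0.43 μM mutagenized RNA pools bearing a 21-nt variable region.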

biotinyl-Met-oxazolone = assay: self-aminoacylation, catalytic enhancement (BMO) (fold over background); higher = more active; k-Seq, kA / k0A0; sequences stand for … in GGGAAUGGAUCCACAUCUACGAAUUC…UUCACUGCAGACUUGACGAAGCUG
In short: as §1

biotinyl-Leu-oxazolone = assay: self-aminoacylation, catalytic enhancement (BLO) (fold over background); higher = more active; k-Seq, kA / k0A0; sequences stand for … in GGGAAUGGAUCCACAUCUACGAAUUC…UUCACUGCAGACUUGACGAAGCUG
In short: as §1

biotinyl-Ile-oxazolone = assay: self-aminoacylation, catalytic enhancement (BIO) (fold over background); higher = more active; k-Seq, kA / k0A0; sequences stand for … in GGGAAUGGAUCCACAUCUACGAAUUC…UUCACUGCAGACUUGACGAAGCUG
In short: as §1

biotinyl-Val-oxazolone = assay: self-aminoacylation, catalytic enhancement (BVO) (fold over background); higher = more active; k-Seq, kA / k0A0; sequences stand for … in GGGAAUGGAUCCACAUCUACGAAUUC…UUCACUGCAGACUUGACGAAGCUG
In short: as §1

biotinyl-Trp-oxazolone = assay: self-aminoacylation, catalytic enhancement (BWO) (fold over background); higher = more active; k-Seq, kA / k0A0; sequences stand for … in GGGAAUGGAUCCACAUCUACGAAUUC…UUCACUGCAGACUUGACGAAGCUG
In short: as §1

| Sequence | self-aminoacylation (biotinyl-Phe-oxazolone) | self-aminoacylation (biotinyl-Met-oxazolone) | self-aminoacylation (biotinyl-Leu-oxazolone) | self-aminoacylation (biotinyl-Ile-oxazolone) | self-aminoacylation (biotinyl-Val-oxazolone) | self-aminoacylation (biotinyl-Trp-oxazolone) |
| --- | --- | --- | --- | --- | --- | --- |
| CAACUUCAAACACUCGGUCUG [Fam1A.1 aminoacylation ribozyme variant] | 1.83 | 1.21 | 0.975 | 1.58 | 1.57 | 1.23 |
| CAACUUCAAACUAUCGGUCUG [Fam1A.1 aminoacylation ribozyme variant] | 1.71 | 1.08 | 1.51 | 1.53 | 1.22 | 1.44 |
| CAACUUCAGACAAUCGGUCUG [Fam1A.1 aminoacylation ribozyme variant] | 2.46 | 0.989 | 1.08 | 1.09 | 1.09 | 1.43 |
| CAAUUUGCUAAUAGUCGCAAG [Fam3.1 aminoacylation ribozyme variant] | 1.37 | 1.19 | 1.04 | 1.35 | 1.11 | 0.763 |
| CAUCUUCAAACAAUCGGUCUG [Fam1A.1 aminoacylation ribozyme variant] | 47 | 1.48 | 1.96 | 1.14 | 1.23 | 24.5 |
| CCAAACUUCAAGAAAUCGGUC [Fam1B.1 aminoacylation ribozyme variant] | 6.01 | 0.927 | 0.986 | 0.936 | 0.84 | 5.02 |
| CCAAACUUCAAGCAAUGGGUC [Fam1B.1 aminoacylation ribozyme variant] | 0.614 | 0.956 | 0.883 | 1.03 | 0.94 | 0.699 |
| CCACAAUUCAAGCAACCGGUC [Fam1B.1 aminoacylation ribozyme variant] | 1.43 | 0.785 | 1.21 | 1.48 | 1.53 | 1.15 |
| CCACAAUUCAAGCAAUAGGUC [Fam1B.1 aminoacylation ribozyme variant] | 1.17 | 0.721 | 0.599 | 1.01 | 0.926 | 0.558 |
| CCACAAUUCAAGCAAUCGGUC [Fam1B.1 aminoacylation ribozyme variant] | 2.8 | 0.936 | 0.973 | 1.17 | 1.16 | 1.69 |
| CCACAAUUCAAGCAAUUGGUC [Fam1B.1 aminoacylation ribozyme variant] | 0.928 | 0.652 | 0.731 | 0.871 | 0.828 | 0.644 |
| CCACAAUUCAAGCUAUCGGUC [Fam1B.1 aminoacylation ribozyme variant] | 0.887 | 0.937 | 1.05 | 1.29 | 1.1 | 0.938 |
| CCACACAUAAAGCAAUCGGUC [Fam1B.1 aminoacylation ribozyme variant] | 0.889 | 0.868 | 0.745 | 1.02 | 0.888 | 0.747 |
| CCACACAUCAAGCAAACGGUC [Fam1B.1 aminoacylation ribozyme variant] | 0.769 | 0.668 | 0.427 | 0.627 | 0.752 | 0.57 |
| CCACACAUCAAGCACUCGGUC [Fam1B.1 aminoacylation ribozyme variant] | 0.805 | 1.02 | 0.724 | 0.935 | 1.18 | 0.94 |
| CCACACAUCGAGCAAUCGGUC [Fam1B.1 aminoacylation ribozyme variant] | 1.08 | 0.972 | 1.38 | 1.24 | 1.67 | 1.07 |
| CCACACGUCAAGCAAUCGGUU [Fam1B.1 aminoacylation ribozyme variant] | 0.693 | 1.57 | 1.32 | 1.54 | 2.28 | 1.45 |
| CCACACUACAAGCAAACGGUC [Fam1B.1 aminoacylation ribozyme variant] | 0.77 | 0.441 | 0.627 | 0.698 | 0.839 | 0.279 |
| CCACACUACAAGCAAUCGGAC [Fam1B.1 aminoacylation ribozyme variant] | 1.12 | 0.752 | 0.449 | 0.935 | 0.943 | 1.17 |
| CCACACUACAAGCAAUCGGUC [Fam1B.1 aminoacylation ribozyme variant] | 1.19 | 0.739 | 0.754 | 0.925 | 0.933 | 0.707 |
| CCACACUACAAGCAAUCGGUG [Fam1B.1 aminoacylation ribozyme variant] | 31.8 | 4.92 | 6.9 | 3.62 | 2.85 | 5.03 |
| CCACACUACAAGUAAUCGGUC [Fam1B.1 aminoacylation ribozyme variant] | 0.994 | 0.663 | 0.736 | 0.851 | 0.755 | 0.714 |
| CCACACUACAGGCAAUCGGUC [Fam1B.1 aminoacylation ribozyme variant] | 0.908 | 1.05 | 1.21 | 1.15 | 1.23 | 1.09 |
| CCACACUCCAAGCAAUUGGUC [Fam1B.1 aminoacylation ribozyme variant] | 1.13 | 0.504 | 0.646 | 0.708 | 0.742 | 0.445 |
| CCACACUCCAAGCCAUCGGUC [Fam1B.1 aminoacylation ribozyme variant] | 1.22 | 1.26 | 1.43 | 1.63 | 1.29 | 0.873 |
| CCACACUCCAAGCGAUCGGUC [Fam1B.1 aminoacylation ribozyme variant] | 0.651 | 1.3 | 1.06 | 1.39 | 1.55 | 1.42 |

| Sequence | self-aminoacylation (biotinyl-Phe-oxazolone) | self-aminoacylation (biotinyl-Met-oxazolone) | self-aminoacylation (biotinyl-Leu-oxazolone) | self-aminoacylation (biotinyl-Ile-oxazolone) | self-aminoacylation (biotinyl-Val-oxazolone) | self-aminoacylation (biotinyl-Trp-oxazolone) |
| --- | --- | --- | --- | --- | --- | --- |
| CCACACUGCAACCAAUCGGUC [Fam1B.1 aminoacylation ribozyme variant] | 1.11 | 0.81 | 1.03 | 1.04 | 1.28 | 0.951 |
| CCACACUGCAAGCAAUCGGUC [Fam1B.1 aminoacylation ribozyme variant] | 1.09 | 0.95 | 0.943 | 1.1 | 1.25 | 1 |
| CCACACUGCAAGCACUCGGUC [Fam1B.1 aminoacylation ribozyme variant] | 2.57 | 1.54 | 1.39 | 1.63 | 1.66 | 1.47 |
| CCACACUGCACGCAAUCGGUC [Fam1B.1 aminoacylation ribozyme variant] | 1.5 | 1.65 | 1.42 | 1.62 | 1.65 | 1.28 |
| CCACACUUAAAACAAUCGGUC [Fam1B.1 aminoacylation ribozyme variant] | 1.09 | 0.841 | 0.619 | 0.999 | 0.932 | 0.855 |
| CCACACUUAAAGCAAUGGGUC [Fam1B.1 aminoacylation ribozyme variant] | 0.874 | 0.701 | 0.76 | 0.943 | 0.779 | 1.33 |
| CCACACUUCAAACCAUCGGUC [Fam1B.1 aminoacylation ribozyme variant] | 0.978 | 0.898 | 1.13 | 0.866 | 1.07 | 0.754 |
| CCACACUUCAACCAAUCGCUC [Fam1B.1 aminoacylation ribozyme variant] | 0.898 | 0.967 | 1.48 | 1.27 | 1.32 | 1.21 |
| CCACACUUCAAGAAGUCGGUC [Fam1B.1 aminoacylation ribozyme variant] | 0.878 | 1.14 | 1.01 | 0.903 | 0.996 | 0.924 |
| CCACACUUCAAGCAAACGGUG [Fam1B.1 aminoacylation ribozyme variant] | 10.7 | 3.91 | 5.1 | 3.12 | 3.33 | 4.31 |
| CCACACUUCAAGCAAAUGGUC [Fam1B.1 aminoacylation ribozyme variant] | 1 | 0.45 | 0.547 | 0.787 | 0.637 | 0.41 |
| CCACACUUCAAGCAACCGGAC [Fam1B.1 aminoacylation ribozyme variant] | 0.734 | 0.839 | 0.602 | 1.15 | 1.07 | 0.606 |
| CCACACUUCAAGCAACCGUUC [Fam1B.1 aminoacylation ribozyme variant] | 0.885 | 1.01 | 0.754 | 1.02 | 1.5 | 1.01 |
| CCACACUUCAAGCAAGCGGUG [Fam1B.1 aminoacylation ribozyme variant] | 1.73 | 2.45 | 3.19 | 1.97 | 1.86 | 2.4 |
| CCACACUUCAAGCAAGCGGUU [Fam1B.1 aminoacylation ribozyme variant] | 0.999 | 1.21 | 1.38 | 1.56 | 1.88 | 1.4 |
| CCACACUUCAAGCAAUCGGAC [Fam1B.1 aminoacylation ribozyme variant] | 1.79 | 0.694 | 0.63 | 0.85 | 0.872 | 1.09 |
| CCACACUUCAAGCAAUCGGUA [Fam1B.1 aminoacylation ribozyme variant] | 1.36 | 0.886 | 0.872 | 0.961 | 1.01 | 1.1 |
| CCACACUUCAAGCAAUCUGUA [Fam1B.1 aminoacylation ribozyme variant] | 0.833 | 0.434 | 0.426 | 0.504 | 0.622 | 0.232 |
| CCACACUUCAAGCAAUGGAUC [Fam1B.1 aminoacylation ribozyme variant] | 1.04 | 0.538 | 0.438 | 0.56 | 0.611 | 0.369 |
| CCACACUUCAAGCACUCGGAC [Fam1B.1 aminoacylation ribozyme variant] | 0.879 | 1.13 | 1.05 | 1.23 | 1.16 | 1.29 |
| CCACACUUCAAGCAGACGGUC [Fam1B.1 aminoacylation ribozyme variant] | 0.719 | 0.607 | 0.605 | 0.686 | 0.57 | 0.539 |
| CCACACUUCAAGCAGUCGGUA [Fam1B.1 aminoacylation ribozyme variant] | 0.579 | 0.707 | 1.03 | 1.04 | 1.08 | 1.02 |
| CCACACUUCAAGCGGUCGGUC [Fam1B.1 aminoacylation ribozyme variant] | 1.43 | 1.02 | 0.919 | 1.07 | 1.14 | 0.788 |
| CCACACUUCAAGCUAUCGGCC [Fam1B.1 aminoacylation ribozyme variant] | 0.862 | 1.7 | 1.82 | 1.62 | 1.51 | 1.81 |
| CCACACUUCAAGGAAUCGGAC [Fam1B.1 aminoacylation ribozyme variant] | 0.997 | 1 | 0.932 | 1 | 0.878 | 0.8 |
